# From US20210261642A1, “SOLUBILITY OF GLP-1 PEPTIDE” (Novo Nordisk A/S, priority 2017, published 2021)
# This continues a long series; more values of the same kind are listed elsewhere.
# Test: Assay (I): Determination of Solubility (96-well plate, pH 3.0-11.0, organic solvent 0-70% w/w, UV absorption at 280 nm)
# Assay type: physicochemical
# Conditions: Method 1 (evaporation)
# Method: Assay (I): Determination of Solubility
# 96-Well Plate Preparation
# 96-well plates containing target peptide in a solid form were prepared in one of two ways:
# Method 1 (evaporation): Addition of 100 μl stock solution of said peptide at a concentration of 4-6 mg/ml to each well of a 96-well half area plate (150 μl well size). Subsequently the solvent was evaporated by applying a vacuum until the solvent was completely removed.
# Method 2 (precipitation): Addition of a certain volume of a stock solution of said peptide containing to each well of a 96-well half area plate followed by the addition of a certain volume of concentrated phosphoric acid to obtain a pH of 4.6 followed by addition of a certain volume of ethanol resulting in a final ethanol concentration of 20% v/v. Subsequently the plate was stored at 4° C. for 1 h and then centrifuged at 4,000 rpm for 20 min. Finally the supernatant was removed. The concentration of the stock solution was chosen in a way that the final amount of peptide after supernatant removal was >0.4 mg per well.
# In both cases the stock solution was prepared by adding de-ionized water to a certain amount of powder of said peptide followed by a stepwise addition of small amounts of a concentrated sodium hydroxide solution until said peptide was completely in solution.
# To determine solubility of a target peptide at different pH and organic solvent concentrations, two different buffer systems were used in independent experiments to cover the whole range from pH 3.0 to pH 11.0. Buffer system 1 covers pH 3.0-7.5 and buffer system 2 covers pH 7.5-11.0. For each buffer system 96 different solvent compositions were premixed in the following way: • 1. A low pH buffer (adjusted to either pH 3.0 or pH 7.5) and a high pH buffer (adjusted to either pH 7.5 or pH 11.0) were mixed at 8 different ratios to obtain values between pH 3.0 and pH 7.5 or pH 7.5 and pH 11.0, respectively. The total volume after mixing was 300 μl. • 2. 12 different amounts of organic solvent were then added to these buffers to obtain organic solvent (e.g. ethanol) concentrations between 0 and 70% w/w. • 3. Water was then added to obtain a total weight of 1.0 g of solvent in each well.
# After preparing the 96 different solvent systems, 100 μl of each system was transferred to the 96-well plate containing the solid form of the target peptide (prepared as described in the section “96-well plate preparation”). The plate was then stored at a given temperature (between 5° C. and 70° C.) for a given time on a rotating shaker set to 400 rpm. At regular time intervals the plate was centrifuged (4,000 rpm for 10 min) and a 10 μl sample was taken from each well. The samples were then analysed by UV absorption at 280 nm for peptide quantification. Peptide concentration results are given as UV absorption at 280 nm of the sample subtracted UV absorption at 280 nm of a well comprising 10 μl water.
# The buffers used were as follows: • Buffer system 1 (for the pH range from pH 3.0-7.5)
# • Buffer system 2 (for the pH ranae from pH 7.5-11.0)
# Solubility of liraglutide was determined using Assay (I) described herein. Liraglutide was prepared using Method 1 (evaporation) or Method 2 (precipitation) as described in subsection “96-well plate preparation”.
structure (smiles),measurement,setting,value
"CCCCCCCCCCCCCCCC(=O)N[C@@H](CCC(=O)NCCCC[C@H](NC(=O)[C@H](C)NC(=O)[C@H](C)NC(=O)[C@H](CCC(N)=O)NC(=O)CNC(=O)[C@H](CCC(=O)O)NC(=O)[C@H](CC(C)C)NC(=O)[C@H](Cc1ccc(O)cc1)NC(=O)[C@H](CO)NC(=O)[C@H](CO)NC(=O)[C@@H](NC(=O)[C@H](CC(=O)O)NC(=O)[C@H](CO)NC(=O)[C@@H](NC(=O)[C@H](Cc1ccccc1)NC(=O)[C@@H](NC(=O)CNC(=O)[C@H](CCC(=O)O)NC(=O)[C@H](C)NC(=O)[C@@H](N)Cc1cnc[nH]1)[C@@H](C)O)[C@@H](C)O)C(C)C)C(=O)N[C@@H](CCC(=O)O)C(=O)N[C@@H](Cc1ccccc1)C(=O)N[C@H](C(=O)N[C@@H](C)C(=O)N[C@@H](Cc1c[nH]c2ccccc12)C(=O)N[C@@H](CC(C)C)C(=O)N[C@H](C(=O)N[C@@H](CCCNC(=N)N)C(=O)NCC(=O)N[C@@H](CCCNC(=N)N)C(=O)NCC(=O)O)C(C)C)[C@@H](C)CC)C(=O)O [liraglutide, Arg34,Lys26-(N-epsilon-(gamma-L-glutamyl(N-alfa-hexadecanoyl)))-GLP-1(7-37)]",Peptide concentration after 180 min,"DMF 38.2% w/w, pH 9.5, RT",>4.0 mg/mL
same,Peptide concentration after 5 min,"DMF 38.2% w/w, pH 10.0, RT",3.2 mg/mL
same,Peptide concentration after 180 min,"DMF 38.2% w/w, pH 10.0, RT",>4.0 mg/mL
same,Peptide concentration after 5 min,"DMF 38.2% w/w, pH 10.5, RT",2.9 mg/mL
same,Peptide concentration after 180 min,"DMF 38.2% w/w, pH 10.5, RT",>4.0 mg/mL
same,Peptide concentration after 5 min,"DMF 38.2% w/w, pH 11.0, RT",0.6 mg/mL
same,Peptide concentration after 180 min,"DMF 38.2% w/w, pH 11.0, RT",>4.0 mg/mL
same,Peptide concentration after 5 min,"DMF 44.5% w/w, pH 3.1, RT",0.2 mg/mL
same,Peptide concentration after 180 min,"DMF 44.5% w/w, pH 3.1, RT",0.2 mg/mL
same,Peptide concentration after 24 h,"DMF 44.5% w/w, pH 3.1, RT",0.3 mg/mL
same,Peptide concentration after 5 min,"DMF 44.5% w/w, pH 4.8, RT",0.2 mg/mL
same,Peptide concentration after 180 min,"DMF 44.5% w/w, pH 4.8, RT",0.2 mg/mL
same,Peptide concentration after 24 h,"DMF 44.5% w/w, pH 4.8, RT",0.2 mg/mL
same,Peptide concentration after 5 min,"DMF 44.5% w/w, pH 5.8, RT",0.4 mg/mL
same,Peptide concentration after 180 min,"DMF 44.5% w/w, pH 5.8, RT",0.4 mg/mL
same,Peptide concentration after 24 h,"DMF 44.5% w/w, pH 5.8, RT",0.5 mg/mL
same,Peptide concentration after 5 min,"DMF 44.5% w/w, pH 6.3, RT",0.3 mg/mL
same,Peptide concentration after 180 min,"DMF 44.5% w/w, pH 6.3, RT",0.3 mg/mL
same,Peptide concentration after 24 h,"DMF 44.5% w/w, pH 6.3, RT",0.6 mg/mL
same,Peptide concentration after 5 min,"DMF 44.5% w/w, pH 6.7, RT",0.4 mg/mL
same,Peptide concentration after 180 min,"DMF 44.5% w/w, pH 6.7, RT",0.4 mg/mL
same,Peptide concentration after 24 h,"DMF 44.5% w/w, pH 6.7, RT",0.6 mg/mL
same,Peptide concentration after 5 min,"DMF 44.5% w/w, pH 6.9, RT",0.4 mg/mL
same,Peptide concentration after 180 min,"DMF 44.5% w/w, pH 6.9, RT",0.6 mg/mL
same,Peptide concentration after 24 h,"DMF 44.5% w/w, pH 6.9, RT",0.7 mg/mL
same,Peptide concentration after 5 min,"DMF 44.5% w/w, pH 7.2, RT",0.4 mg/mL
same,Peptide concentration after 180 min,"DMF 44.5% w/w, pH 7.2, RT",0.6 mg/mL
same,Peptide concentration after 24 h,"DMF 44.5% w/w, pH 7.2, RT",1.6 mg/mL
same,Peptide concentration after 5 min,"DMF 44.5% w/w, pH 7.5, RT",1.8 mg/mL
same,Peptide concentration after 180 min,"DMF 44.5% w/w, pH 7.5, RT",>4.0 mg/mL
same,Peptide concentration after 5 min,"DMF 44.5% w/w, pH 8.0, RT",1.0 mg/mL
same,Peptide concentration after 180 min,"DMF 44.5% w/w, pH 8.0, RT",>4.0 mg/mL
same,Peptide concentration after 5 min,"DMF 44.5% w/w, pH 8.5, RT",1.8 mg/mL
same,Peptide concentration after 180 min,"DMF 44.5% w/w, pH 8.5, RT",>4.0 mg/mL
same,Peptide concentration after 5 min,"DMF 44.5% w/w, pH 9.0, RT",3.6 mg/mL
same,Peptide concentration after 180 min,"DMF 44.5% w/w, pH 9.0, RT",3.8 mg/mL
same,Peptide concentration after 5 min,"DMF 44.5% w/w, pH 9.5, RT",3.3 mg/mL
same,Peptide concentration after 180 min,"DMF 44.5% w/w, pH 9.5, RT",>4.0 mg/mL
same,Peptide concentration after 5 min,"DMF 44.5% w/w, pH 10.0, RT",>4.0 mg/mL
same,Peptide concentration after 180 min,"DMF 44.5% w/w, pH 10.0, RT",>4.0 mg/mL
same,Peptide concentration after 5 min,"DMF 44.5% w/w, pH 10.5, RT",3.0 mg/mL
same,Peptide concentration after 180 min,"DMF 44.5% w/w, pH 10.5, RT",>4.0 mg/mL
same,Peptide concentration after 5 min,"DMF 44.5% w/w, pH 11.0, RT",3.1 mg/mL
same,Peptide concentration after 180 min,"DMF 44.5% w/w, pH 11.0, RT",3.8 mg/mL
same,Peptide concentration after 5 min,"DMF 50.9% w/w, pH 3.1, RT",0.2 mg/mL
same,Peptide concentration after 180 min,"DMF 50.9% w/w, pH 3.1, RT",0.2 mg/mL
same,Peptide concentration after 24 h,"DMF 50.9% w/w, pH 3.1, RT",0.3 mg/mL
same,Peptide concentration after 5 min,"DMF 50.9% w/w, pH 4.8, RT",0.2 mg/mL
same,Peptide concentration after 180 min,"DMF 50.9% w/w, pH 4.8, RT",0.2 mg/mL
same,Peptide concentration after 24 h,"DMF 50.9% w/w, pH 4.8, RT",0.2 mg/mL
